From the supplement of paper PMC12067093, “Discovery and optimisation of a covalent ligand for TRIM25 and its application to targeted protein ubiquitination” (Chemical Science, 2025)
The list shows a part of the results.

Sequences of proteins named here, by UniProt entry; tags and fusion partners are left off. A change or cut given only in a name is not applied to a line headed by its entry.
UniProt Q13422: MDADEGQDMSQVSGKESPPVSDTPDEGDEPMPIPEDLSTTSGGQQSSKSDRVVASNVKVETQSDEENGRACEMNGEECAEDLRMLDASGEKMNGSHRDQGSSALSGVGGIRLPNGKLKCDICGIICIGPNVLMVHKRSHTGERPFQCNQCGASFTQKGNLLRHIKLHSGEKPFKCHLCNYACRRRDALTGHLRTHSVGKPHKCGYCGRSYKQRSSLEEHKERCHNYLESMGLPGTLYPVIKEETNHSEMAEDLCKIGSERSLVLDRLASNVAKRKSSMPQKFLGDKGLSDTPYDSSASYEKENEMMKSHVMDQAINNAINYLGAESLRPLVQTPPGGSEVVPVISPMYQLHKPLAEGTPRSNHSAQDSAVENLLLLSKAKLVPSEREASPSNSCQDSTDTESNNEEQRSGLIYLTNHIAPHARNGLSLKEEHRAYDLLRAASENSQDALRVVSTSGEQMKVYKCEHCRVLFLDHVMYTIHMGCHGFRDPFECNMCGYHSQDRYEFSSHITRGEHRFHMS
UniProt P11717, whole entry, looked up: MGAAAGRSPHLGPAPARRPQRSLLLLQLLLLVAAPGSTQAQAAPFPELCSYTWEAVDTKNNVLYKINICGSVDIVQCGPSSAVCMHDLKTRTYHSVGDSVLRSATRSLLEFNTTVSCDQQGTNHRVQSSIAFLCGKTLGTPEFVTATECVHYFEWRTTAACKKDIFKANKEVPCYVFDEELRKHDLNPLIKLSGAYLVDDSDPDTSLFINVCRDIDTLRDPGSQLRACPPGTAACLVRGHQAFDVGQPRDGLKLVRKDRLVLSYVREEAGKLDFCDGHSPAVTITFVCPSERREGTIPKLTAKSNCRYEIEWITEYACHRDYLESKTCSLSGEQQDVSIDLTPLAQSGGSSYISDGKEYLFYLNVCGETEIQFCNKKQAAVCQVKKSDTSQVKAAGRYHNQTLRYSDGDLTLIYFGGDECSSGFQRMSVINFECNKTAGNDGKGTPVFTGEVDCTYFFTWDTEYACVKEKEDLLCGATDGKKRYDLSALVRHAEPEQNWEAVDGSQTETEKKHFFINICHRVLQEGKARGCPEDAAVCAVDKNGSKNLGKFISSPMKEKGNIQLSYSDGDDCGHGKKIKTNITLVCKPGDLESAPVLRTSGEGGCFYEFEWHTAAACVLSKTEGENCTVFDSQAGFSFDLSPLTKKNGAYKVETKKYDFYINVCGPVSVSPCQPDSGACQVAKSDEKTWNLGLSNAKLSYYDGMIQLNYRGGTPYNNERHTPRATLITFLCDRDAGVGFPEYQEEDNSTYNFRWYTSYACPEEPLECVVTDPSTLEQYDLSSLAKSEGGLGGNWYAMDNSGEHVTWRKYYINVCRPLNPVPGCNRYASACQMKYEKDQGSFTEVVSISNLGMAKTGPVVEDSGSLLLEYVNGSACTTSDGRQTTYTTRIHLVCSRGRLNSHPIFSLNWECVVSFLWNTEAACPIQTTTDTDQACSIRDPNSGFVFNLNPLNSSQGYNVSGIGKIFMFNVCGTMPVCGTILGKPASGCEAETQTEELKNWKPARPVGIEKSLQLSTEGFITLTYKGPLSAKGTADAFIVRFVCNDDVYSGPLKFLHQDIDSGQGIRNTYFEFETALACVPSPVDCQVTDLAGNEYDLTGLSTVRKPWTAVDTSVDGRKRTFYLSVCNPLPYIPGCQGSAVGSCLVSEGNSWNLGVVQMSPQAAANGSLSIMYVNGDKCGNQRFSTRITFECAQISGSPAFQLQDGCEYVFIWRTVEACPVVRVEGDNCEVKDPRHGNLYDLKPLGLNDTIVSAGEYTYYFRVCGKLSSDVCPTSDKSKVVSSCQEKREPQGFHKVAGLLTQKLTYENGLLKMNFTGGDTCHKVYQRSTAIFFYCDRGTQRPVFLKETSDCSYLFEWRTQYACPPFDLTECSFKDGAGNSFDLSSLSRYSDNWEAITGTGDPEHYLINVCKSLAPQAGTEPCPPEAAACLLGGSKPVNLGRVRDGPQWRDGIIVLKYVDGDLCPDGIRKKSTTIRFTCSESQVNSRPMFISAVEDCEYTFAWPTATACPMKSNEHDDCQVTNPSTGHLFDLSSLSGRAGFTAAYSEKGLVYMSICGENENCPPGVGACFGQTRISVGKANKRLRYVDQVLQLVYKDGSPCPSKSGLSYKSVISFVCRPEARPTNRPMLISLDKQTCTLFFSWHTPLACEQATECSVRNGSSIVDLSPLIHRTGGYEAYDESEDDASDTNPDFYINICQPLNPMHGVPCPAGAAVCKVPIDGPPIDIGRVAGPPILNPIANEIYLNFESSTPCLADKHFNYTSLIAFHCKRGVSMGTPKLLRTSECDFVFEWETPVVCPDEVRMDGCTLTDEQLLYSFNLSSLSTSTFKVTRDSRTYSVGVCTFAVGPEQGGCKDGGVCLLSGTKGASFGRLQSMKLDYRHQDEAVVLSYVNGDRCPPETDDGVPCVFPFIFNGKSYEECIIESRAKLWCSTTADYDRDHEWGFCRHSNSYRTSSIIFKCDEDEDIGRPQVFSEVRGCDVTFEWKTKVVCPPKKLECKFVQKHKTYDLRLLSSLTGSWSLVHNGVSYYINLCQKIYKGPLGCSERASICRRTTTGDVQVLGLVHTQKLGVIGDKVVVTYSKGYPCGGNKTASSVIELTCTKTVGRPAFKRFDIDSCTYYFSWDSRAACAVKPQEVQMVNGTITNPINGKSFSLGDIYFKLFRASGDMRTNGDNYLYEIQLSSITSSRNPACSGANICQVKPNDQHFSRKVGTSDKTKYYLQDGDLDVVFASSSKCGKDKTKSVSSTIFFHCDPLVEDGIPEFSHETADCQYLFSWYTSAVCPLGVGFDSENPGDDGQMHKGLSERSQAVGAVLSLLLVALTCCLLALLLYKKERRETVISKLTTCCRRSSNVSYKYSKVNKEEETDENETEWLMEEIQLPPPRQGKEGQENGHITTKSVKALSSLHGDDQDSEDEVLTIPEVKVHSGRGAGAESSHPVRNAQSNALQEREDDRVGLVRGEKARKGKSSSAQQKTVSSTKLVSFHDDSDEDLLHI
UniProt P80217: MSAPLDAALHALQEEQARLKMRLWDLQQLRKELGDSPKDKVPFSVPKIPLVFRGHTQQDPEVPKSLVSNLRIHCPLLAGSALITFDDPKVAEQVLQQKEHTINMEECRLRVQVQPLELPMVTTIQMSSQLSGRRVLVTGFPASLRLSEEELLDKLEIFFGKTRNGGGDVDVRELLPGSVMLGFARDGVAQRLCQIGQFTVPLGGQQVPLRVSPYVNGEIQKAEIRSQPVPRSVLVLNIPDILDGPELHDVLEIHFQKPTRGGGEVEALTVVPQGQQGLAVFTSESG
UniProt P42858, whole entry, looked up: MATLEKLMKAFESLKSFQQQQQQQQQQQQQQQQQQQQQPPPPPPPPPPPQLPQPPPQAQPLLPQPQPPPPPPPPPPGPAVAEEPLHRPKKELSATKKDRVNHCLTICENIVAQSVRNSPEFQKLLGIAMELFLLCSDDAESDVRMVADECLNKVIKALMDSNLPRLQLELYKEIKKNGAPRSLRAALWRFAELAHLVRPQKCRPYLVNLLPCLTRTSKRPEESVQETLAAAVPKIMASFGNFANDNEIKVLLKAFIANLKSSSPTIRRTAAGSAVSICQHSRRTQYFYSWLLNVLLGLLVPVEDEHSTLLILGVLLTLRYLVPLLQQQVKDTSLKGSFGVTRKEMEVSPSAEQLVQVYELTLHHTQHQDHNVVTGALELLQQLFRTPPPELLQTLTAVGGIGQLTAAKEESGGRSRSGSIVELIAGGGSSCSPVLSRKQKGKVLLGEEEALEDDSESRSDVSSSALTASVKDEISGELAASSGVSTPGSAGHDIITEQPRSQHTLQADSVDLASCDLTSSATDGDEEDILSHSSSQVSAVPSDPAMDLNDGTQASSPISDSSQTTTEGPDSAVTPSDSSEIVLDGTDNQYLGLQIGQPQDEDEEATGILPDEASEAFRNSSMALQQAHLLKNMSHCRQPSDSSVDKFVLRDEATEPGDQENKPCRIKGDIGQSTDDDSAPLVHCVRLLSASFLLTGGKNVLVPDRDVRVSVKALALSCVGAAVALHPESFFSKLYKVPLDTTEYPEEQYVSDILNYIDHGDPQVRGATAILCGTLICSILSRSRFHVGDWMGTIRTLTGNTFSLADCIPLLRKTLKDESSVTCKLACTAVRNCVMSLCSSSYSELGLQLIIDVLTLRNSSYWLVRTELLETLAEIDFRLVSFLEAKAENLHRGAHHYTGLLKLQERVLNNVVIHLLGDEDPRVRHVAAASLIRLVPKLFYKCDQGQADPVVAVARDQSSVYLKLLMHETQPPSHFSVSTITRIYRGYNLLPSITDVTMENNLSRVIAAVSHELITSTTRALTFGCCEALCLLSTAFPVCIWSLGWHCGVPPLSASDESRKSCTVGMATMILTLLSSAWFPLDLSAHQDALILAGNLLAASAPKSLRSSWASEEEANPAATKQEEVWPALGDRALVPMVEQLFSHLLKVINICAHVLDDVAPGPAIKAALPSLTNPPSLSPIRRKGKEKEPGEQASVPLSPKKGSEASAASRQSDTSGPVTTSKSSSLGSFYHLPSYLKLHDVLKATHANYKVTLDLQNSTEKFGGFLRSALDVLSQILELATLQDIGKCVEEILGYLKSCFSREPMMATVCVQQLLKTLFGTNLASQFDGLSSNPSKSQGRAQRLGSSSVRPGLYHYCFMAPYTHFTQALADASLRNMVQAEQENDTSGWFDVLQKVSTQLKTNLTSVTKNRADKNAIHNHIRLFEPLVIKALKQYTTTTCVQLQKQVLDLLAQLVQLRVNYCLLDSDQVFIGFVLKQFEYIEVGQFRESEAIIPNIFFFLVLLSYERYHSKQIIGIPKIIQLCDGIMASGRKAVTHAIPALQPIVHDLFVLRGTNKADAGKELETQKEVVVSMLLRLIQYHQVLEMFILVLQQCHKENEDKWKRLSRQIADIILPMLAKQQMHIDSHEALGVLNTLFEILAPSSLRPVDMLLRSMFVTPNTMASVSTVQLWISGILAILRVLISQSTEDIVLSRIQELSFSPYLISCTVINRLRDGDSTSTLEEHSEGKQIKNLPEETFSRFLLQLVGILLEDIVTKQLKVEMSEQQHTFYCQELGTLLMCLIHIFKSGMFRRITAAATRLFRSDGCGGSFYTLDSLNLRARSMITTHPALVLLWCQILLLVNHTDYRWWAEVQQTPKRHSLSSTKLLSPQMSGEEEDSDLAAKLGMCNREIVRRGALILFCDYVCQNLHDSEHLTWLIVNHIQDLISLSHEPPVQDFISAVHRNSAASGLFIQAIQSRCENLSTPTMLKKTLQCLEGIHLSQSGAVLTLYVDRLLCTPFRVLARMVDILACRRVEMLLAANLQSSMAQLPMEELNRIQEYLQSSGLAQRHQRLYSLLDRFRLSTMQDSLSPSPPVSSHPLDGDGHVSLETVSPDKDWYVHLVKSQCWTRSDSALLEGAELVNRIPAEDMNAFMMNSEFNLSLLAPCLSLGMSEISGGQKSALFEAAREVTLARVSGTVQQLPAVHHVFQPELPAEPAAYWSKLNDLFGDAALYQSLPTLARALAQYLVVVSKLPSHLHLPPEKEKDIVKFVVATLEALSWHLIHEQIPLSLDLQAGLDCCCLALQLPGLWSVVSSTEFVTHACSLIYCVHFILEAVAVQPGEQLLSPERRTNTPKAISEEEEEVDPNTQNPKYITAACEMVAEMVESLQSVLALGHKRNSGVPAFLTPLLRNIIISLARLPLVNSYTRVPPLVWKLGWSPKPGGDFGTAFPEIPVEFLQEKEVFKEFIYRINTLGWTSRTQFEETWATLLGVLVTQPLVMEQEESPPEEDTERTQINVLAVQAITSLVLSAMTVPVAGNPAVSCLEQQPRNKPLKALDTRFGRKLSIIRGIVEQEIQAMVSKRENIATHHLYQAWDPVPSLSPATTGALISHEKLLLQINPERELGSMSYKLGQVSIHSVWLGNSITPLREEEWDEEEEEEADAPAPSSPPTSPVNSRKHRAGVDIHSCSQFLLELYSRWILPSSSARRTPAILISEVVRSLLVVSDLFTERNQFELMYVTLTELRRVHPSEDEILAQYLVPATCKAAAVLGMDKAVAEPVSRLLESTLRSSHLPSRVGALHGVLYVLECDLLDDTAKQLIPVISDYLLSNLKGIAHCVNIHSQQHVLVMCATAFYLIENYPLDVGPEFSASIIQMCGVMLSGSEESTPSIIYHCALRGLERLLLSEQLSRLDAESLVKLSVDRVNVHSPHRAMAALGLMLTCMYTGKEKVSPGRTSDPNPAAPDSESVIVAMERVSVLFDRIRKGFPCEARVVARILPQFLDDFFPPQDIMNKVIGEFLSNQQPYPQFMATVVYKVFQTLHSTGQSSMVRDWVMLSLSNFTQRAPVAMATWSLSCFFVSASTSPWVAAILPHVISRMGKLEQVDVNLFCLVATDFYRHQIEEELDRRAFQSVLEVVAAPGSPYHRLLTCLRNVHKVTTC

Compound: CC1Cc2ccccc2N1C(=O)C1CCCN(C1)C(=O)CCl (mixture of isomers) [TRIM25 ligand 11 (diastereomer mixture)]
Assay: probe-labelled cysteine peptide fold change vs DMSO (competition) (log2 fold change); higher = less target engagement (more negative = stronger competition)
Settings: THP-1, incubation time: 4 h
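Also: competitive chemoproteomic profiling in live THP-1 cells with an iodoacetamide desthiobiotin (IA-DTB) probe, comparing probe-labelled peptide intensities in compound-treated cells against DMSO-treated controls.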

Target | probe-labelled cysteine peptide fold change (10 µM) | probe-labelled cysteine peptide fold change (50 µM)
IARS2_Q9NSE4_819_SCQTALVEILDVIVR (UniProt Q9NSE4) | 0.153 | -0.107
IDH2_P48735_154_NILGGTVFREPIICK (UniProt P48735) | -0.0639 | -0.083
IKZF1_Q13422_71_ACEMNGEECAEDLR (UniProt Q13422) | -0.344 | -0.414
IDH2_P48735_113_CATITPDEARVEEFK (UniProt P48735) | -0.248 | -0.0456
IARS_P41252_336_EEEGTGVVHQAPYFGAEDYRVCMDFNIIR (UniProt P41252) | 0.139 | -0.315
IARS2_Q9NSE4_819_RSCQTALVEILDVIVR (UniProt Q9NSE4) | 0.00877 | -0.0616
IKBKG_Q9Y6K9_95_EFLMCK (UniProt Q9Y6K9) | -0.0456 | -0.0957
IDH3G_P51553_333_NIANPTATLLASCMMLDHLK (UniProt P51553) |  | -0.0538
IARS2_Q9NSE4_155_IHFVPGWDCHGLPIEIK (UniProt Q9NSE4) | 0.0601 | 0.143
IGF2R_P11717_893_IHLVCSR (UniProt P11717) | -0.0445 | 0.00867
IDH3G_P51553_236_LGDGLFLQCCR (UniProt P51553) | 0.0357 | 0.079
ILKAP_Q9H0C8_312_CQLTPNDR (UniProt Q9H0C8) | 0.0904 | 0.104
IDH1_O75874_379_DLAACIK (UniProt O75874) | -0.0207 | -0.0598
HUWE1_Q7Z6Z7_2666_VLDAESMHDCVSVVK (UniProt Q7Z6Z7) | -0.035 | -0.0406
IL6R_P08887_121_AGRPAGTVHLLVDVPPEEPQLSCFR (UniProt P08887) | -0.172 | 0.19
ILKAP_Q9H0C8_190_CLLDTFK (UniProt Q9H0C8) | -0.0317 | 0.0241
IMPDH2_P12268_246_QLLCGAAIGTHEDDK (UniProt P12268) | 0.0786 | 0.0887
IGBP1_P78318_116+118_EHFINYLTQCHCYHVAEFELPK (UniProt P78318) | 0.0719 | 0.0982
HUS1_O60921_44_LNFILCDK (UniProt O60921) | 0.0505 | -0.124
ILF3_Q12906_116_GDLDLELVLLCK (UniProt Q12906) | -0.0308 | 0.0695
HUWE1_Q7Z6Z7_4099_VTYTINPSSHCNPNHLSYFK (UniProt Q7Z6Z7) | 0.423 | -0.332
IGF2R_P11717_1783_TSECDFVFEWETPVVCPDEVR (UniProt P11717) | -0.144 | -0.672

Target | probe-labelled cysteine peptide fold change (10 µM) | probe-labelled cysteine peptide fold change (50 µM)
IFI35_P80217_74_IHCPLLAGSALITFDDPK (UniProt P80217) | -0.23 | -0.0169
IKBKB_O14920_716_KSEELVAEAHNLCTLLENAIQDTVR (UniProt O14920) | 0.164 | 0.121
IMPDH2_P12268_468_FVPYLIAGIQHSCQDIGAK (UniProt P12268) | -0.064 | -0.107
IKZF1_Q13422_182_CHLCNYACR (UniProt Q13422) | 0.06 | 0.198
IL4I1_Q96RQ9_252_AHSCLSDR (UniProt Q96RQ9) | 0.19 | 0.207
IDH1_O75874_269_SEGGFIWACK (UniProt O75874) | -0.0319 | 0.0185
IKBKG_Q9Y6K9_76_CEELLHFQASQR (UniProt Q9Y6K9) | 0.15 | -0.0962
IDE_P14735_257_FHSAYYSSNLMAVCVLGR (UniProt P14735) | -0.353 | -0.375
ILK_Q13418_8_MDDIFTQCR (UniProt Q13418) | -0.161 | -0.0863
IGF2R_P11717_1856_DGGVCLLSGTK (UniProt P11717) | -0.0798 | -0.0318
IGF2R_P11717_1839_TYSVGVCTFAVGPEQGGCK (UniProt P11717) | -0.0521 | 0.0858
IFRD2_Q12894_147_EYVDCLTDK (UniProt Q12894) | -0.0616 | -0.0507
HUWE1_Q7Z6Z7_1401_AESPEEVACR (UniProt Q7Z6Z7) | 0.0781 | 0.0153
IDH3A_P50213_351+359_CSDFTEEICR (UniProt P50213) | -0.0227 | -0.189
IL17RA_Q96F46_469_CDHGKPVGDLFTAAMNMILPDFK (UniProt Q96F46) | 0.227 | 0.431
IDH3A_P50213_359_CSDFTEEICR (UniProt P50213) | -0.0208 | 0.0507
IARS_P41252_336_VCMDFNIIRK (UniProt P41252) | -0.269 | -0.115
IMPA2_O14732_107_CVLTHSPTWIIDPIDGTCNFVHR (UniProt O14732) | -0.106 | -0.116
HUWE1_Q7Z6Z7_3658_RAQCETLSPDGLPEEQPQTTK (UniProt Q7Z6Z7) | -0.164 | -0.175
IFIH1_Q9BYX4_17_YLISCFR (UniProt Q9BYX4) | 0.00934 | 0.2
INO80_Q9ULG1_1026_VTAVPLDSYCNDR (UniProt Q9ULG1) | -0.0821 | 0.000184
HYAL3_O43820_361_CHGHGR (UniProt O43820) | 0.0116 | 0.112

Target | probe-labelled cysteine peptide fold change (10 µM) | probe-labelled cysteine peptide fold change (50 µM)
HUWE1_Q7Z6Z7_1879_VLGPAACR (UniProt Q7Z6Z7) | -0.135 | 0.0352
IKZF1_Q13422_394_EASPSNSCQDSTDTESNNEEQR (UniProt Q13422) | 0.184 | -0.141
IGF2R_P11717_1795_TSECDFVFEWETPVVCPDEVR (UniProt P11717) | -0.233 | -0.0471
IGF2R_P11717_814_YYINVCRPLNPVPGCNR (UniProt P11717) | -0.0433 | 0.0709
IFT27_Q9BW83_166_EMENFEAPFHCLAK (UniProt Q9BW83) | -0.155 | -0.189
HTT_P42858_1708_IQELSFSPYLISCTVINR (UniProt P42858) | -0.298 | -0.0732
IDH3A_P50213_331_IEAACFATIK (UniProt P50213) | 0.232 | 0.131
ILKAP_Q9H0C8_301_CGVTSVPDIRR (UniProt Q9H0C8) | -0.168 | 0.0621
IDE_P14735_178_FAQFFLCPLFDESCK (UniProt P14735) | 0.0503 | -0.118
HUS1_O60921_12_IVDGACLNHFTR (UniProt O60921) | -0.14 | 0.00282
IDH3B_O43837_233_LGDGLFLQCCEEVAELYPK (UniProt O43837) | 0.314 | 0.514
IMPA1_P29218_184_LFCIPVHGIR (UniProt P29218) | -0.0315 | 0.0538
ILVBL_A1L0T0_608_VLHDAQQQCR (UniProt A1L0T0) | -0.00491 | -0.0121
IGF2R_P11717_1461_YVDGDLCPDGIR (UniProt P11717) | -0.00683 | 0.0541
ICAM3_P32942_139_CQVEDGSPR (UniProt P32942) | -0.0448 | -0.112
HUWE1_Q7Z6Z7_1278_MAESMLAILCHILR (UniProt Q7Z6Z7) | 0.0396 | 0.235
INF2_Q27J81_101_ISDALLQLTCVSCVR (UniProt Q27J81) | -0.284 | -0.0718
IARS_P41252_400_LLVATTFTHSYPFCWR (UniProt P41252) | -0.0304 | 0.234
IGFBP4_P22692_174_EDARPVPQGSCQSELHR (UniProt P22692) | -0.0871 | -0.193
IFI35_P80217_107_EHTINMEECR (UniProt P80217) | -0.0214 | -0.0266
IMPDH1_P20839_215_GKLPIVNDCDELVAIIAR (UniProt P20839) | -0.173 | 0.0621
IFI16_Q16666_679_INQLCSQTK (UniProt Q16666) | -0.0511 | 0.00297

Pulled one by one from the entries so far (4):
Target | probe-labelled cysteine peptide fold change (10 µM) | probe-labelled cysteine peptide fold change (50 µM)
IFI16_Q16666_679_INQLCSQTK (UniProt Q16666) | -0.0511 | 0.00297
ILVBL_A1L0T0_608_VLHDAQQQCR (UniProt A1L0T0) | -0.00491 | -0.0121
IFT27_Q9BW83_166_EMENFEAPFHCLAK (UniProt Q9BW83) | -0.155 | -0.189
IKZF1_Q13422_394_EASPSNSCQDSTDTESNNEEQR (UniProt Q13422) | 0.184 | -0.141

(next part)

Target | probe-labelled cysteine peptide fold change (10 µM) | probe-labelled cysteine peptide fold change (50 µM)
IGF2R_P11717_2096_TASSVIELTCTK (UniProt P11717) | -0.0988 | 0.0405
HUWE1_Q7Z6Z7_790_FVESILSNNTTDDHCQEFVNQK (UniProt Q7Z6Z7) | -0.153 | -0.214
IMMT_Q16891_697_LLSYASYCIEHGDLELAAK (UniProt Q16891) | 0.348 | 0.0287
ILKAP_Q9H0C8_221_DGSTATCVLAVDNILYIANLGDSR (UniProt Q9H0C8) | -0.166 | 0.0411
HTT_P42858_1152_VINICAHVLDDVAPGPAIK (UniProt P42858) | 0.0583 | 0.184
INPP1_P49441_97_LCSTEEETAELLSK (UniProt P49441) | -0.0128 | 0.0897
IARS2_Q9NSE4_211_WGIMADWNNCYYTFDGK (UniProt Q9NSE4) | 0.318 | 0.229
ILVBL_A1L0T0_568_EQVPSLGSNVACGLAYTDYHK (UniProt A1L0T0) | 0.0322 | -0.0148
IMPA1_P29218_125_KIEFGVVYSCVEGK (UniProt P29218) | 0.172 | 0.175
IL1RAP_Q9NPH3_438_LCIFDRDSLPGGIVTDETLSFIQK (UniProt Q9NPH3) | 0.0923 | 0.143
HUWE1_Q7Z6Z7_624_GLQSFVQCQPFER (UniProt Q7Z6Z7) | 0.0504 | -0.0208
HTT_P42858_2792_VGALHGVLYVLECDLLDDTAK (UniProt P42858) | -0.094 | -0.088
HTT_P42858_777_GATAILCGTLICSILSR (UniProt P42858) | -0.112 | 0.306
IFI16_Q16666_637_IIAIANYVCR (UniProt Q16666) | -0.193 | -0.0508
HUWE1_Q7Z6Z7_3635_HLGYTLCK (UniProt Q7Z6Z7) | -0.0958 | -0.0193
INF2_Q27J81_971_KGPGKQEEVCVIDALLADIR (UniProt Q27J81) | -0.103 | -0.196
IL6R_P08887_277_DLQHHCVIHDAWSGLR (UniProt P08887) | -0.0505 | -0.079
ICAM3_P32942_423_HVLQCQAR (UniProt P32942) | 0.00813 | 0.0916
IDNK_Q5T6J7_63_GIPLNDQDRIPWLCNLHDILLR (UniProt Q5T6J7) | -0.0642 | 0.0666
HUWE1_Q7Z6Z7_2721_ENRDQSAQCTASK (UniProt Q7Z6Z7) | -0.544 | -0.527
